The results in this text go back to article PMC12851002.

Construct, isoform or probe ends are uncertain for at least one entry. At least one verdict was read from the data and is not stated in words by the source.

For this data set, the system named is thrombin (human). Nature of the data set: pull-down (LASSO polymer; S-2238 activity and SDS-PAGE of supernatant). Conditions: aptamer CSL (TBA and HD22) on P20, 90.1 ± 0.5% captured by the set, 98.2 ± 1.2% of captured released by release strand; LASSO pulldown on P20 under native conditions; native protein; folded or branched DNA.

For “GGTTGGTGTGGTTGGTTAGTGATGAGCGGGATTAGAGCCTTATGAGCCGTC [Switchable TBA thrombin aptamer catcher strand]”, the binding result is given as “binds”. To “AGTCCGTGGTAGGGCAGGTTGGGGTGACTTATTCGCATTCTTAGATTAGAGCCTTATGAGCCGTC [Switchable HD22 thrombin aptamer catcher strand]” belongs “binds”.
